Measured values taken from patent US4113736A, “2-Phenyl-indole derivatives” (priority 1975, dated 1978).

Experiments:
[1] = Static thermostability of stabilized polyvinyl chloride resin, simplified method with GARDNER sub-scale, 210° C.
[2] = Static thermostability of stabilized polyvinyl chloride resin, GARDNER Scale comparator, 185° C.
Protocol: The stabilizing power of the substances of the invention was studied by determining the static thermostability of the following resin: […]
Polyvinyl chloride resin
Calcium-12-hydroxy-stearate
Stabilizer from 0.1 to 1
SL 2016 represents a solution of zinc-2-ethyl-hexanoate in a mixture of aromatic hydrocarbons boiling between 158° and 184° C.
The different ingredients were mixed and calendered in a mixer of which the cylinders were heated to 160° C.
The rigid sheets so obtained were then heated in a oven to a temperature of 185° or 210° C., until incipient carbonization.
A oven with a rotating drum, ventilated and equipped with a thermostat was used for this operation.
In the trials described hereunder the behaviour of the sheets containing one of the stabilizers to be tested was compared to that of sheets of the same formula but containing 2-phenyl-indole as stabilizer.
Comparison can be made by one of two methods, namely:
(1) The coloration of the sheets, of which samples were removed from the oven at fixed intervals, was compared to a standard scale of coloration, known as the GARDNER Scale, and expressed in terms of the reference figures of the GARDNER Scale.
Comparisons were made with a GARDNER Scale comparator which contains 18 filters of colored glass and which offers the possibility of observing simultaneously by transparency and in a limited field of view both the sheet and the reference filters.
It may happen that the color of the sheets is far removed from that of the GARDNER Scale, in which case comparison is difficult, if not impossible.
The following results were obtained at a temperature of 185° C., using the method described above: […]

Row | SMILES | Coloration of the sheets ([1]; 0 minutes) [GARDNER degrees] | Coloration of the sheets ([1]; 3 minutes) [GARDNER degrees] | Coloration of the sheets ([1]; 6 minutes) [GARDNER degrees] | Coloration of the sheets ([1]; 9 minutes) [GARDNER degrees] | Coloration of the sheets ([1]; 12 minutes) [GARDNER degrees] | Coloration of the sheets ([1]; 15 minutes) [GARDNER degrees] | Coloration of the sheets ([1]; 18 minutes) | Coloration of the sheets ([2]; 0 minutes) [GARDNER degrees] | Coloration of the sheets ([2]; 6 minutes) [GARDNER degrees] | Coloration of the sheets ([2]; 12 minutes) [GARDNER degrees] | Coloration of the sheets ([2]; 18 minutes) [GARDNER degrees] | Coloration of the sheets ([2]; 24 minutes) [GARDNER degrees] | Coloration of the sheets ([2]; 30 minutes) [GARDNER degrees] | Coloration of the sheets ([2]; 36 minutes) [GARDNER degrees] | Coloration of the sheets ([2]; 42 minutes) [GARDNER degrees] | Coloration of the sheets ([2]; 48 minutes) [GARDNER degrees] | Coloration of the sheets ([2]; 54 minutes) | Coloration of the sheets ([2]; 60 minutes)
1 | COc1ccc2cc(-c3ccccc3)[nH]c2c1 [Stabilizer 1, 2-phenyl-6-methoxy-indole] | 1 | 1 | 2 | 3 | 4 | 10 | burnt |  |  |  |  |  |  |  |  |  |  | 
2 | Oc1ccc2cc(-c3ccccc3)[nH]c2c1 [Stabilizer 2, 2-phenyl-6-hydroxy-indole] |  |  |  |  |  |  |  | 1 | 1 | 2 | 4 | 9 | 11 | 12 | 14 | 14 | 15 GARDNER degrees | 19 GARDNER degrees
3 | CCCCCCCCCCCCOc1ccc2[nH]c(-c3ccccc3)cc2c1 [Stabilizer 3, 2-phenyl-5-dodecyloxy-indole] | 1 | 1 | 2 | 3 | 6 | 11 | 15 GARDNER degrees |  |  |  |  |  |  |  |  |  |  | 
4 | COc1ccc(-c2cc3cc(C)ccc3[nH]2)cc1 [Stabilizer 4, 2-(4'-methoxy-phenyl)-5-methyl-indole] |  |  |  |  |  |  |  | 1 | 1 | 2 | 5 | 8 | 10 | 11 | 13 | 14 | 15 GARDNER degrees | burnt
5 | COc1ccc(-c2cc3cccc(C)c3[nH]2)cc1 [Stabilizer 5, 2-(4'-methoxy-phenyl)-7-methyl-indole] | 1 | 2 | 3 | 8 | 10 | 11 | burnt |  |  |  |  |  |  |  |  |  |  | 
6 | COc1ccc(-c2cc3ccc(C)cc3[nH]2)cc1 [Stabilizer 6, 2-(4'-methoxy-phenyl)-6-methyl-indole] |  |  |  |  |  |  |  | 1 | 1 | 2 | 4 | 7 | 9 | 11 | 12 | 13 | 15 GARDNER degrees | burnt
7 | COc1ccc(-c2cc3cc(C)cc(C)c3[nH]2)cc1 [Stabilizer 7] |  |  |  |  |  |  |  | 1 | 1 | 3 | 6 | 12 | 14 | 15 | 15 | 16 | 18 GARDNER degrees | burnt
8 | COc1cc(-c2cc3cccc(C)c3[nH]2)ccc1O [Stabilizer 8] |  |  |  |  |  |  |  | 1 | 1 | 2 | 5 | 10 | 11 | 11 | 13 | 13 | 14 GARDNER degrees | 17 GARDNER degrees
9 | COc1ccc(-c2cc3cccc(C)c3[nH]2)cc1C [Stabilizer 9] |  |  |  |  |  |  |  | 1 | 1 | 3 | 6 | 10 | 11 | 11 | 15 | 15 | 18 GARDNER degrees | burnt
10 | COc1ccc(-c2cc3ccc(C)c(C)c3[nH]2)cc1 [Stabilizer 10] |  |  |  |  |  |  |  | 2 | 2 | 4 | 7 | 11 | 12 | 13 | 15 | 16 | 18 GARDNER degrees | burnt
11 | COc1ccc(-c2cc3cccc(C)c3[nH]2)c(OC)c1 [Stabilizer 11] |  |  |  |  |  |  |  | 4 | 4 | 5 | 9 | 11 | 15 | 15 | 16 | 17 | burnt | burnt
12 | CCCCCCCCCCCCOc1ccc(-c2cc3ccc(C)cc3[nH]2)cc1 [Stabilizer 12] | 1 | 2 | 2 | 3 | 11 | 14 | burnt |  |  |  |  |  |  |  |  |  |  | 
13 | COc1cc(-c2cc3ccc(C)cc3[nH]2)ccc1O [Stabilizer 13] |  |  |  |  |  |  |  | 1 | 1 | 2 | 4 | 6 | 10 | 10 | 11 | 15 | 15 GARDNER degrees | burnt
14 | CCCCCCCCCCCCOc1ccc(-c2cc3cccc(C)c3[nH]2)cc1C [Stabilizer 14] | 1 | 1 | 3 | 4 | 15 | 15 | burnt |  |  |  |  |  |  |  |  |  |  | 
15 | COc1cc(-c2cc3cc(C)ccc3[nH]2)ccc1O [Stabilizer 15] |  |  |  |  |  |  |  | 1 | 1 | 2 | 4 | 8 | 10 | 11 | 11 | 11 | 13 GARDNER degrees | 18 GARDNER degrees
16 | COc1ccc(-c2cc3ccc(OC)cc3[nH]2)cc1 [Stabilizer 17] |  |  |  |  |  |  |  | 1 | 1 | 2 | 4 | 8 | 10 | 11 | 12 | 14 | 17 GARDNER degrees | burnt
17 | Oc1ccc2[nH]c(-c3ccccc3)cc2c1 [Stabilizer 19] | 1 | 1 | 3 | 9 | 11 | 12 | burnt |  |  |  |  |  |  |  |  |  |  | 
